Assay results reported in publication doi:10.1101/2020.05.13.090514.

Sequences of proteins named here, by UniProt entry; tags and fusion partners are left off.
UniProt O75396: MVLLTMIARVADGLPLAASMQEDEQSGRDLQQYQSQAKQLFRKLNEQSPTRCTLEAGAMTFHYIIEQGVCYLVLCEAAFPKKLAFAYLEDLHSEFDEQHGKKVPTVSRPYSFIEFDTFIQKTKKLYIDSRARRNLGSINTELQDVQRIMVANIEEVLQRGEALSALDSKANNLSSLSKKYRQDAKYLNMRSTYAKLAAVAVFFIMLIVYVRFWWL
UniProt P61081: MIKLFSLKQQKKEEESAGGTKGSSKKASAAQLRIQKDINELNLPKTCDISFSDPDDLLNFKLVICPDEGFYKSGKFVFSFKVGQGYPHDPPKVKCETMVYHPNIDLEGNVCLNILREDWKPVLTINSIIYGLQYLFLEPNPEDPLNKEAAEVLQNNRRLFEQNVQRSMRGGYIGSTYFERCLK

Target: T1, FLAG-tagged FKBP51 (FK506-binding protein 51), overexpressed in HEK293 cells (UniProt Q13451)
T1 sequence: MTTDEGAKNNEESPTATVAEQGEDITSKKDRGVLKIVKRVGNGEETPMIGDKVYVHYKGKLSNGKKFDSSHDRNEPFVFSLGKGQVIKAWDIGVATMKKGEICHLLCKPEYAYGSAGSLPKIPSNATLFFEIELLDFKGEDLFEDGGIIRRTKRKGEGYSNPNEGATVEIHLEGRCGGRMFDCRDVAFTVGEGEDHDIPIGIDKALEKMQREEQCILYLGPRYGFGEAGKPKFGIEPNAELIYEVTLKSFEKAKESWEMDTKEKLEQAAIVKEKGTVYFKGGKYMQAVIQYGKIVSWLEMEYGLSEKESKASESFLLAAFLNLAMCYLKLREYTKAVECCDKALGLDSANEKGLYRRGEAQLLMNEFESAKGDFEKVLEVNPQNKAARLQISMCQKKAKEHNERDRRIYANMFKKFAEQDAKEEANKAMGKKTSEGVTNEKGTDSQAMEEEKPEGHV
Experiment: affinity purification with mass spectrometry

Substance	binding
SEC22B (vesicular R-SNARE protein), found in the FLAG-FKBP51 immunoprecipitate from HEK293 cells (from UniProt O75396 1-215)	binds
UBC12, FKBP51 interactor of the HEK293 interactome (from UniProt P61081 1-183)	binds

No constants are given. Whether binding was seen depends on the method and setting. In cells and extracts the contact can be indirect. Here binding means that the protein was enriched with, or labelled near, the bait; the list need not be complete. Tags and fused reporters may be left off the sequences shown.
